These results are taken from publication PMC12180984.

Chains of the proteins cited; added tags and fusions are not shown.
UniProt Q08857: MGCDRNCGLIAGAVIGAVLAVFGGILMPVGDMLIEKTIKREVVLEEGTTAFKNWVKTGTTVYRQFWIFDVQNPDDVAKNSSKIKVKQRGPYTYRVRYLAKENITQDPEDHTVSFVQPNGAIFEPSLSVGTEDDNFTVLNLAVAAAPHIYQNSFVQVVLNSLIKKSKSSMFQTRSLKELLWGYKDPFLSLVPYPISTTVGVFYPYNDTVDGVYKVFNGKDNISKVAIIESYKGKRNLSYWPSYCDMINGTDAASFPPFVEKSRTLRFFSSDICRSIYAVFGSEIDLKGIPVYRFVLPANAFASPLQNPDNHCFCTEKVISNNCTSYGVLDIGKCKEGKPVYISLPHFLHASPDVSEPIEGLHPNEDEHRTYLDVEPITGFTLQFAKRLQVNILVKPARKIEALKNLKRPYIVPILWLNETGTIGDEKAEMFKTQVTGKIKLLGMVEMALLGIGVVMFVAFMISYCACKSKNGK
UniProt P39688: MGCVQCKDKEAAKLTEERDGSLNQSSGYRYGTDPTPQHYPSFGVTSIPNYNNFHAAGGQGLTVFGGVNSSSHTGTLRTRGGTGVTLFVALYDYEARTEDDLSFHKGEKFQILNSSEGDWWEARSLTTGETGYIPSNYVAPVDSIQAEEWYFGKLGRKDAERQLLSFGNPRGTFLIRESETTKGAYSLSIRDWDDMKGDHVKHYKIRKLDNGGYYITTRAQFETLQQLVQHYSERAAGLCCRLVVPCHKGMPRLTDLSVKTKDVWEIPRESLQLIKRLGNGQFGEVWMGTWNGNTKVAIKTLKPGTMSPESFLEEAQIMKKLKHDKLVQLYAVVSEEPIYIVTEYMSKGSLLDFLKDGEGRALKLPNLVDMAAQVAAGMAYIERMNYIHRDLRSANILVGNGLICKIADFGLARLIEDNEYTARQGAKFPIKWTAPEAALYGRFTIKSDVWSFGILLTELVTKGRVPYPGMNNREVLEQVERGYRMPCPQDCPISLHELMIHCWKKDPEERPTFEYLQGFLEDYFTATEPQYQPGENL
UniProt P25911: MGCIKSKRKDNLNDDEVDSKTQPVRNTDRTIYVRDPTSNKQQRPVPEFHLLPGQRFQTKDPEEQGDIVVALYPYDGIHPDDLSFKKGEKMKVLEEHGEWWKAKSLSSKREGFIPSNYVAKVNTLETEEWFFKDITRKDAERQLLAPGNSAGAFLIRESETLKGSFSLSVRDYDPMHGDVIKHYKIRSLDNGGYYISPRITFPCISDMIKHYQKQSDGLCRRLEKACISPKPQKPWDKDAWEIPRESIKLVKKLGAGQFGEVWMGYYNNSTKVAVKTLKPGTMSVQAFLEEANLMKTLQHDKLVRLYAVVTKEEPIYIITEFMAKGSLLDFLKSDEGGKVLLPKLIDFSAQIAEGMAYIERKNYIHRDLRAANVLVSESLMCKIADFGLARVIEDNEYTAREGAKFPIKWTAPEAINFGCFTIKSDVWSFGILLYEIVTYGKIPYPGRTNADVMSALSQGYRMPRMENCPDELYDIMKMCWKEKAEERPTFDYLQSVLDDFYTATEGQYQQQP

No constants are given. Whether binding was seen depends on the method and setting. In cells and extracts the contact can be indirect. Some binding calls cover weakened binding; strength is not graded here. For some of these results: Tags and fused reporters may be left off the sequences shown.

In test [1] the target is CD36, endogenous in RAW264.7 macrophages (mouse (endogenous in RAW264.7)) (UniProt Q08857). The test can be described thus: co-IP; endogenous proteins of RAW264.7 cells lysed in RIPA buffer; primary antibody and protein A/G agarose overnight at 4 C, washed three times with PBS; cells untreated, LDL- or oxLDL-treated; for Lyn and Fyn with sh-ASMase or control and oxLDL for 24 h.

For test [2], the target named is T1, Full-length ASMase (vector of the domain mapping) (UniProt Q04519).
T1 sequence: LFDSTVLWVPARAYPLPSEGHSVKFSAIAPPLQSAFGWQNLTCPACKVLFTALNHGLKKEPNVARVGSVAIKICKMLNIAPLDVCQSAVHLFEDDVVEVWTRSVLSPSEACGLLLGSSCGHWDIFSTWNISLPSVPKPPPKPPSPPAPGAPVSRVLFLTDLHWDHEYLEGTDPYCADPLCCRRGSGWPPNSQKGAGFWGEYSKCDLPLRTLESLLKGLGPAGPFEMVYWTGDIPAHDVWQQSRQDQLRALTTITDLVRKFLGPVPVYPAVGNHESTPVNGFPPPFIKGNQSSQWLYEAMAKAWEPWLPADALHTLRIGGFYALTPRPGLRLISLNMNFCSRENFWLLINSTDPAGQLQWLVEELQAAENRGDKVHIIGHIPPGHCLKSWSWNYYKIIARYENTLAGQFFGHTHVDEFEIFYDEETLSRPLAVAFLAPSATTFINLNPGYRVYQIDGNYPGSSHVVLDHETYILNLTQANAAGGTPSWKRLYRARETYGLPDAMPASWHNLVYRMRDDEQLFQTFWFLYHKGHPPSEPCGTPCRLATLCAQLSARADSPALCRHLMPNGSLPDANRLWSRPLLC
Description: co-IP; oxLDL-treated cells transfected with HA-CD36 and vectors expressing full-length or truncated ASMase.

The target in test [3] is Flag-CD36 (wild-type CD36) (UniProt Q08857). Description: co-IP; RAW264.7 cells transfected with Flag-CD36 and HA-ASM, with or without oxLDL; precipitated with anti-Flag agarose gel, immunoblot with CD36 and ASMase antibodies. In general terms: Immunoblotting shows a protein as a band on a membrane.

As for “Fyn kinase, endogenous in RAW264.7 macrophages (from UniProt P39688 1-537) (enzyme)”, the binding result in test [1] is recorded as “binds”.
“Hemagglutinin (HA)-CD36 (from UniProt Q08857 1-472) (receptor)”: the binding result in test [2] is given as “binds”.
As to “Lyn kinase, endogenous in RAW264.7 macrophages (from UniProt P25911 1-512) (enzyme)”, the binding entry in test [1] is recorded as “binds”.

B1: HA-tagged ASMase (HA-ASM), expressed in RAW264.7 cells (enzyme, UniProt Q04519 45-627)
chain: T1 sequence
Turning to B1, the binding result in test [3] is reported as “binds”.
